Results on 17 molecules are retold here after paper doi:10.1101/2025.05.13.653872.

No constants are given. Whether binding was seen depends on the method and setting. In cells and extracts the contact can be indirect. These calls come from enrichment with a bait or labelling near it, and not all partners need be listed.

The target of assay [1] is 3xFlag-PcrP overexpressed in P. aeruginosa ΔpcrP (P. aeruginosa PAO1) (UniProt Q9I040). Put plainly: affinity purification with mass spectrometry; 3xFlag-PcrP overexpressed in ΔpcrP grown in BMM8 (high Pi, 580 μM) or BMMH8 (low Pi, 50 μM) at 0 or 5 mM Ca2+; lysate (1 mg/ml) on ANTI-FLAG M2 magnetic beads, 2 h at 4°C, washed with 10 mM Tris-HCl pH 7.5; LC-MS/MS; ΔpcrP as negative control.

Assay [2] has as its target 6xHis-PcrP overexpressed in P. aeruginosa ΔpcrP (P. aeruginosa PAO1) (UniProt Q9I040). In words: affinity purification with mass spectrometry; 6xHis-PcrP overexpressed in ΔpcrP grown in BMM8 at 0 or 5 mM Ca2+; lysate (1 mg/ml) on HisPur Ni-NTA resin, 2 h at 4°C, washed with 10 mM Tris-HCl pH 7.5; LC-MS/MS; ΔpcrP as negative control.

B1: PA4671 probable ribosomal protein L25 (protein, UniProt Q9HVC4 1-204)
chain: MVDFILNAQVRSDLGKGASRRLRRNAGLVPAVVYGGDKEPQSVTLELREIAKLLENEAAFSHVIALNVGGAKETVLIKALQRHPAKGFVMHADFLRVVADHKLTAHVPLHFINEEVAVGVKQAGGEISHTISEVEVSCLPKDLPEFIEVDMAKVELGQIVHLSDLKAPKGVELVQLAHGNDLAVANIHASRVVKEEGSEEGAAE
Turning to B1, the binding entry in assay [1] is “binds”.

B2: PA1546 coproporphyrinogen III oxidase (protein, UniProt P77915 1-460)
chain: MLDTIRWDADLIRRYDLSGPRYTSYPTAVQFHEGIGPFDQLHALRDSRKAGHPLSLYVHIPFCANICYYCACNKVITKDRGRSAPYLARLVREIEIVSRHLSREQVVEQLHFGGGTPTFLSPGQLRELMSQLRTHLNLLDDDSGDYGIEIDPREADWSTMGLLRELGFNRVSLGVQDFDMEVQKAVNRMQTPEETRTIVEAARTLQYRSINLDLIYGLPKQTPDSFARTVDEVIALQPDRLSVFNYAHLPERFMPQRRINADDLPSPGQKLEMLQRTTEQLAAAGYRYIGMDHFALPDDELASAQEDGTLQRNFQGYTTHGHCDLVGLGVSAISQIGDLYSQNSSDINDYQTSLDNGQLAIRRGLHCNSDDRVRRAVIQQLICHFELAFEDIETEFGIDFRSYFAELWPDLERFAADGLIRLDAKGIDITSSGRLLVRSICMLFDRYLPSLNRQRFSRVI
Consider B2, for which the binding result in assay [1] and in assay [2] was “binds” throughout.

B3: PA3645 (3R)-hydroxymyristoyl-[acyl carrier protein] dehydratase (protein, UniProt Q9HXY7 1-146)
chain: MMDINEIREYLPHRYPFLLVDRVVELDIEGKRIRAYKNVSINEPFFNGHFPEHPIMPGVLIIEAMAQAAGILGFKMLDVKPADGTLYYFVGSDKLRFRQPVLPGDQLQLHAKFISVKRSIWKFDCHATVDDKPVCSAEIICAERKL
Turning to B3, the binding entry in assay [1] was “binds”.

B4: PA3155 UDP-2-acetamido-2-dideoxy-d-ribo-hex-3-uluronic acid transaminase, wbpE (protein, UniProt Q9HZ76 1-359)
chain: MIEFIDLKNQQARIKDKIDAGIQRVLRHGQYILGPEVTELEDRLADFVGAKYCISCANGTDALQIVQMALGVGPGDEVITPGFTYVATAETVALLGAKPVYVDIDPRTYNLDPQLLEAAITPRTKAIIPVSLYGQCADFDAINAIASKYGIPVIEDAAQSFGASYKGKRSCNLSTVACTSFFPSKPLGCYGDGGAIFTNDDELATAIRQIARHGQDRRYHHIRVGVNSRLDTLQAAILLPKLEIFEEEIALRQKVAAEYDLSLKQVGIGTPFIEVNNISVYAQYTVRMDNRESVQASLKAAGVPTAVHYPIPLNKQPAVADEKAKLPVGDKAATQVMSLPMHPYLDTASIKIICAALTN
In the case of B4, in assay [1], the binding result is listed as “binds”.

B5: PA1833 probable oxidoreductase (protein, UniProt Q9I2R2 1-330)
chain: MAVFKALWVTEAPHGVYETQVVERDTGDLPAGDVLIRVQYSSLNYKDALSASGNRGVTRKYPHTPGIDAAGVVAESSVAEFAAGDEVIVTGYDLGMNTAGGFGQYIRVPAAWVIKRPQGLSLREAMILGTAGLTAALCVEKLERSGLRPDHGSVLVTGASGGVGSIAVELLAKLGYTVAAATGKLEQAEFLNRLGAKQILDRATVADGVDKPLLKEQWAGAVDTVGGDILFNVVKSLQYGGSVACCGLTAGAGFKASVLPFILRGVNLLGVDSVELPLVVKASMWDKLSLQWKLDNLEEVAREIALEELPGAINQILAGKLVGRVLVNLG
With B5, in assay [1], the binding result is listed as “binds”.

B6: PA5027 hypothetical protein (protein, UniProt Q9HUE2 1-271)
chain: MIRHLLVAHDLTPEADVALARAAQLARQHDARVSLLHVYDPGLSASAVKTVSAMLQLKRKEAGLDEDSAIHLFRGQPIDGILQQTRALEPDLLLMGAHHQKTFERFGNTTLDQVVRRSRVPVLLAVREADEPYRQALSALDFSQCACTALRQAYRLLPVEADLHALHVFESPDDGVLGLPRQNAAHLATQAGLIEQLLSDEQERLPGVGPQLSHEVVPGVLPYSLDAALKQRQPELLALGRHSRNALMQALLGNLAQRYLRQPSCDVLVTS
Regarding B6, the binding entry in assay [1] and in assay [2] was “binds” throughout.

B7: PA1585 2-oxoglutarate dehydrogenase (E1 subunit) (protein, UniProt Q9I3D3 1-943)
chain: MHESVMQRMWNSAHLSGGNAAYVEELYELYLHDPNAVPEEWRTYFQKLPADGNPAPDVSHSTVRDHFVLLAKNQRRAQPVSAGSVSSEHEKKQVEVLRLIHAYRLRGHQASTLDPLGLWQRPAPADLSIDHYGLTGADLDTTFRTGELYIGKEEATLREIVDSLKSTYCGTFGAEFMHIVDSEQRKWFLQRLESVRGRPGFSAEARAHLLERLTAAEGLEKYLGTKYPGTKRFGLEGGESLIPMVDEIIQRCGSYGAKEIVIGMAHRGRLNVLVNTLGKNPRDLFDEFEGKKIVELGSGDVKYHQGFSSNVMTSGGEVHLALAFNPSHLEIVSPVVEGSVRARQDRRKDSSGDKVVPISIHGDAAFAGQGVVMETFQMSQTRAYKTGGTIHLVINNQVGFTTSRQDDARSTEYATDVAKMIQAPIFHVNGDDPEAVLFVTQLAVDYRMQFKRDVVIDLVCYRRRGHNEADEPSGTQPLMYQQIAKQRTTRELYADALVNAGVLSAEQVQSKIDDYRDALDNGLHVVKSLVKEPNKELFVDWRPYLGHAWTARHDTRFDLKTLQELSSKMLEVPEGFVVQRQVSKIYEDRQKMAAGGLPINWGFAETLAYATLLFEGHPVRMTGQDVGRGTFSHRHAVLHNQKDDSVYVPLANLFDGQPRLDIYDSFLSEEAVLAFEYGFATTTPNSLVIWEAQFGDFANGAQVVIDQFITSGESKWGRLCGLTMLLPHGYEGQGPEHSSARLERYLQLCAEQNIQVCVPTTPAQVYHMLRRQVIRPLRKPLVVMTPKSLLRHKLAISTLEDLANGSFQTVIPEIDSLDPKKVDRVVLCSGKVYYDLLEKRRAEGREDTAIVRIEQLYPFPEDDLAEVLAPYKNLKHIVWCQEEPMNQGAWFCSQHHMRRVIAAHKKGLNLEYAGREGSAAPACGYASMHAEQQEKLLQDAFTV
For the molecule B7, the binding result in assay [1] is “binds”.

B8: PA3712 hypothetical protein (protein, UniProt Q9HXS9 1-231)
chain: MNTRGLLDQLLKSGQEMLQNKSGGKPGASGGGQLGSLLSGAGGGALAAGAIGLLLGNKKARKFGGKAITYGGLAALGVIAYKAYNNWQQQQNGAAPQAQPQTVDRLPEAQAEVHSHAILQAIVGAAKADGHIDERERQMIEGEVAKLTSDREVQGWLERELNKPLDPAEIARAASTPEIAAEMYLASLLMVDEESFMERSYLEELARQLRLEPSFKLELENQARQALQRLA
With B8, the binding result in assay [1] is reported as “binds”.

B9: PA4518 hypothetical protein (protein, UniProt Q9HVQ4 1-141)
chain: MTGNGVSLVTLGVADLARSSLYYQALGWQPSSDGNEQVVFLKGRNLVLGLYGRSALAEDAQVEDRPTGFAAITLACNCASRDEVDRLFSAATAAGGQATKMPQEVFWGGYSGYVADPDGHLWEIAYNPFWPFDEQGNLVLP
On to B9, for which, in assay [1], the binding result is listed as “binds”.

B10: RpiA (PA0330), ribose 5-phosphate isomerase (protein, UniProt Q9I6G1 1-223)
chain: MNQDQLKQAVAQAAVDHILPHLDSKSIVGVGTGSTANFFIDALARHKAEFDGAVASSEATAKRLKEHGIPVYELNTVSELEFYVDGADESNERLELIKGGGAALTREKIVAAVAKTFICIADASKLVPILGQFPLPVEVIPMARSHVARQLVKLGGDPVYREGVLTDNGNIILDVHNLRIDSPVELEEKINAIVGVVTNGLFAARPADLLLLGTADGVKTLKA
For B10, the binding result in assay [1] was “binds”.

B11: PA3720 hypothetical protein (protein, UniProt Q9HXS1 1-141)
chain: MNAPAKSLLDIDAFPLVQVREMPRELADVERWLEEVEALLAVERDFALVYPPLPQETAEGDQQARKRLVLWLKENRQRFVEHCRGILLSANGQPDNLADLQQLAPVLQAVYGPPVSVAPDLASARGMAKALLSGPATGMNW
In the case of B11, the binding entry in assay [1] and in assay [2] was “binds” in each case.

B12: PA5049 50S ribosomal protein L31 (protein, UniProt Q9HUD0 1-71)
chain: MKADIHPTYEAIEATCSCGNVIKTRSTLCKPIHLDVCSECHPFYTGKQKVLDTGGRIDRFKQRFGVFGATK
As for B12, the binding result in assay [1] is on record as “binds”.

B13: PA0945 phosphoribosylaminoimidazole synthetase (protein, UniProt Q9I513 1-353)
chain: MSSKQPSLSYKDAGVDIDAGEALVERIKGVAKRTARPEVMGGLGGFGALCEIPAGYKQPVLVSGTDGVGTKLRLALNLNKHDSIGQDLVAMCVNDLVVCGAEPLFFLDYYATGKLNVDVAATVVTGIGAGCELAGCSLVGGETAEMPGMYEGEDYDLAGFCVGVVEKAEIIDGSRVQAGDALIALPSSGPHSNGYSLIRKIIEVSGADIAQVQLDGKPLADLLMAPTRIYVKPLLQLIKQTGAVKAMAHITGGGLLDNIPRVLPDNAQAVIDVASWNRPAVFDWLQEQGNVDETEMHRVLNCGVGMVICVAQSDAEKALEVLRAAGEQPWQIGRIETCGADAERVVLNNLKNH
Turning to B13, in assay [1], the binding entry is recorded as “binds”.

B14: PA2189 hypothetical protein (protein, UniProt Q9I1S6 1-184)
chain: MSKQHIIHFTGPINSSTCGNLINTCAKVLQQEAEELRINIATMGGECSYGFTLYNFLRALPVPIHTHNLGTVESMGNILFLAGERRSASAHSKFLFHPFHWTLHGAVDHARMAEYAMSLDYDLELYARIVAENTRDAPERLDIPRYLMAYPRILGPEDALACGLIHTVDDSPIPAAACQWSIHS
As for B14, the binding result in assay [1] was “binds”.

B15: PA4026 probable acetyltransferase (protein, UniProt Q9HX01 1-153)
chain: MRIVQATLEHLDLLAPLFVKYREFYGMLSYPESSRKFLEKRLRRKESVIYLALADEEDRLLGFCQLYPSFSSLSLKRVWILNDIYVAEEARRQLVADHLLQHAKQMARETHAVRMRVSTSVDNEVAQKVYESIGFREDQEFKNYTLPISDELS
On to B15, for which, in assay [1], the binding entry is on record as “binds”.

B16: PA2173 hypothetical protein (protein, UniProt Q9I1U2 1-116)
chain: MNEYLPTSTANGLPHNLQRGERLASIGAGLVLAGFGLARGGLPGACKAVAGGLLVSRGLSGHCHVKGLLNEPREELQLLREEVQHLTRRLQRLQERQRDDSRQDAALDAELPPNLP
Turning to B16, the binding entry in assay [1] is “binds”.

B17: PqsB (PA0997) (protein, UniProt Q9I4X2 1-283)
chain: MLIQAVGVNLPPSYVCLEGPLGGERPRAQGDEMLMQRLLPAVREALDEAAVKPEEIDLIVGLALSPDHLIENRDIMAPKIGHPLQKVLGANRAHVFDLTDSSLARALYVVDTLASDQGYRNVLVVRGESSQGLEVDSESGFALADGALALLCRPTGKAAFRRGALGGDPAQEWLPLSIPLNTDIRQVGDVKGHLNLPAQPGLPEAVRAGFTRLAGDFPQLNWVREEWFGQGRPDGRCLGPFELASQLRAAQRDRLDELLLISFDPFGMVVEGVTLELAGEAHA
On to B17, for which the binding result in assay [1] and in assay [2] was “binds” each time.
